From paper PMC11417337 come the findings set out here.

Protein sequences, listed by entry. Tags and fused reporters are not part of them. Residues count along the entry.
UniProt P48678, residues 1-647: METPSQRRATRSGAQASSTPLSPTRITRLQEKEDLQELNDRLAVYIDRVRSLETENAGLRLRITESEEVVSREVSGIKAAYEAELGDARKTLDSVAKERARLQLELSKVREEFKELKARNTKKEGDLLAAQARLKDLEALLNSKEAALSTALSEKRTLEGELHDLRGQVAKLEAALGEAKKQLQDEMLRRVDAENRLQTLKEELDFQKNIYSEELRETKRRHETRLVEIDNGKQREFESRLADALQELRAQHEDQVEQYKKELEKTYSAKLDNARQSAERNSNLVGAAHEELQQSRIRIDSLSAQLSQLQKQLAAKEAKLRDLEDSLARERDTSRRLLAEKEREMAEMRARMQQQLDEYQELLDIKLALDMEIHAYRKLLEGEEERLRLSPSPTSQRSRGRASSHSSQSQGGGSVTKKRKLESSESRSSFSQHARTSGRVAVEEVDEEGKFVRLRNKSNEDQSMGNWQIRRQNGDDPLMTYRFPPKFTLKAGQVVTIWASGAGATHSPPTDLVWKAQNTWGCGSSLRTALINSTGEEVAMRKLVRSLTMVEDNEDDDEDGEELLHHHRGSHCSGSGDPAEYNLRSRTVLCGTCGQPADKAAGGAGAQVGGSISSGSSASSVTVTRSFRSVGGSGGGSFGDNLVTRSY

No constants are given. Whether binding was seen depends on the method and setting. In cells and extracts the contact can be indirect. Some binding calls cover weakened binding; strength is not graded here.

For the experiment, the target named is lamin A/C (mouse (endogenous in mouse dermal fibroblasts)) (UniProt P48678). Kind of experiment: co-IP; endogenous lamin A/C immunoprecipitated with the E1 anti-lamin A/C antibody from the soluble fraction of mouse dermal fibroblasts (IP buffer: 20 mM Tris-HCl pH 7.5, 150 mM NaCl, 2 mM EGTA, 2 mM MgCl2, 0.5% NP-40, 1 mM DTT, benzonase), western blot; Figure 4D: untransfected or control siRNA cells; Figure 5D: cells untreated or treated with rapamycin.

B1: LAP2α ΔN mutant (residues 186-693) (domain or fragment, UniProt Q61033 186-693)
chain: DEGKKKEHKKVKSARDCVPFSELASTPSGAFFQGISFPEISTRPPLGRTELQAAKKVQTTKRDPPRETCTDTALPGKGQTHKLAPGRSLFIPSESSYDRCVEKSSSPSSQREFAARLVSAAASPSLIRETTTTYSKDIVENICRGGKSRAQPLRAEEPGVSDQSVFSSEREVLQESERSQVISPPLAQAIRDYVNSLLVQGGVGSLPGTSDSVPTLDVENICKRLSQSSYQDSESLSPPRKVPRLSEKPARGGDSGSCVAFQNTPGSEHRSSFAKSVVSHSLTTLGVEVSKPPPQHDKIEASEPSFPLHESILKVVEEEWQQIDRQLPSVACRYPVSSIEAARILSVPKVDDEILGFISEATPRAATQASSTESCDKHLDLALCRSYEAAASALQIAAHTAFVAKSLQADISQAAQIINSDPSDAQQALRILNRTYDAASYLCDAAFDEVRMSACAMGSSTMGRRYLWLKDCKISPASKNKLTVAPFKGGTLFGGEVHKVIKKRGNKQ
B1: the binding result is recorded as “no binding”.

B2: LAP2α ΔC mutant (residues 1-414) (domain or fragment, UniProt Q61033 1-414)
chain: MPEFLEDPSVLTKDKLKSELVANNVTLPAGEQRKDVYVQLYLQHLTARNRPPLAAGANSKGPPDFSSDEEREPTPVLGSGASVGRGRGAVGRKATKKTDKPRLEDKDDLDVTELSNEELLDQLVRYGVNPGPIVGTTRKLYEKKLLKLREQGTESRSSTPLPTVSSSAENTRQNGSNDSDRYSDNDEGKKKEHKKVKSARDCVPFSELASTPSGAFFQGISFPEISTRPPLGRTELQAAKKVQTTKRDPPRETCTDTALPGKGQTHKLAPGRSLFIPSESSYDRCVEKSSSPSSQREFAARLVSAAASPSLIRETTTTYSKDIVENICRGGKSRAQPLRAEEPGVSDQSVFSSEREVLQESERSQVISPPLAQAIRDYVNSLLVQGGVGSLPGTSDSVPTLDVENICKRLSQSS
As to B2, the binding result is given as “no binding”.

B3: barrier-to-autointegration factor (BAF) (protein, UniProt O54962 1-89)
chain: MTTSQKHRDFVAEPMGEKPVGSLAGIGDVLSKRLEERGFDKAYVVLGQFLVLKKDEDLFREWLKDTCGANAKQSRDCFGCLREWCDAFL
With B3, the binding entry is “binds”.

B4: LAP2α C-terminal mutant (residues 414-693) (domain or fragment, UniProt Q61033 414-693)
chain: SYQDSESLSPPRKVPRLSEKPARGGDSGSCVAFQNTPGSEHRSSFAKSVVSHSLTTLGVEVSKPPPQHDKIEASEPSFPLHESILKVVEEEWQQIDRQLPSVACRYPVSSIEAARILSVPKVDDEILGFISEATPRAATQASSTESCDKHLDLALCRSYEAAASALQIAAHTAFVAKSLQADISQAAQIINSDPSDAQQALRILNRTYDAASYLCDAAFDEVRMSACAMGSSTMGRRYLWLKDCKISPASKNKLTVAPFKGGTLFGGEVHKVIKKRGNKQ
With B4, the binding entry is given as “no binding”.
